Test results reported in the supplement of paper PMC10849652.
This is one part of the list.

Chains of the proteins cited; added tags and fusions are not shown. Lines headed by an entry give the natural chain unless they say otherwise; changes in a name come on top.
UniProt Q16610: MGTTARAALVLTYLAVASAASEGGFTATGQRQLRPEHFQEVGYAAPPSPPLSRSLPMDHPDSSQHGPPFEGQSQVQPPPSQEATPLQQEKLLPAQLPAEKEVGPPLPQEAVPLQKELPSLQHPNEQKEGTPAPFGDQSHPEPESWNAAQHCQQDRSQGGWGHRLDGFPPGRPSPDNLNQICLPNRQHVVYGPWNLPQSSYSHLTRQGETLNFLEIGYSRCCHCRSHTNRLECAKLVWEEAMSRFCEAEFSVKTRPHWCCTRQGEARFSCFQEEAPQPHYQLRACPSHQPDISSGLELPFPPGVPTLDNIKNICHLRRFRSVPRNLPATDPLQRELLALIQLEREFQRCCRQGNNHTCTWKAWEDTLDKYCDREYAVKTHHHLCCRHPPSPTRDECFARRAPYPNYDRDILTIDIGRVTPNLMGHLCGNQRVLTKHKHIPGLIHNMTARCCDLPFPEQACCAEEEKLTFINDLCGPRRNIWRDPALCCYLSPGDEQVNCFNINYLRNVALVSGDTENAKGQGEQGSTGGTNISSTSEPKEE
UniProt P42892: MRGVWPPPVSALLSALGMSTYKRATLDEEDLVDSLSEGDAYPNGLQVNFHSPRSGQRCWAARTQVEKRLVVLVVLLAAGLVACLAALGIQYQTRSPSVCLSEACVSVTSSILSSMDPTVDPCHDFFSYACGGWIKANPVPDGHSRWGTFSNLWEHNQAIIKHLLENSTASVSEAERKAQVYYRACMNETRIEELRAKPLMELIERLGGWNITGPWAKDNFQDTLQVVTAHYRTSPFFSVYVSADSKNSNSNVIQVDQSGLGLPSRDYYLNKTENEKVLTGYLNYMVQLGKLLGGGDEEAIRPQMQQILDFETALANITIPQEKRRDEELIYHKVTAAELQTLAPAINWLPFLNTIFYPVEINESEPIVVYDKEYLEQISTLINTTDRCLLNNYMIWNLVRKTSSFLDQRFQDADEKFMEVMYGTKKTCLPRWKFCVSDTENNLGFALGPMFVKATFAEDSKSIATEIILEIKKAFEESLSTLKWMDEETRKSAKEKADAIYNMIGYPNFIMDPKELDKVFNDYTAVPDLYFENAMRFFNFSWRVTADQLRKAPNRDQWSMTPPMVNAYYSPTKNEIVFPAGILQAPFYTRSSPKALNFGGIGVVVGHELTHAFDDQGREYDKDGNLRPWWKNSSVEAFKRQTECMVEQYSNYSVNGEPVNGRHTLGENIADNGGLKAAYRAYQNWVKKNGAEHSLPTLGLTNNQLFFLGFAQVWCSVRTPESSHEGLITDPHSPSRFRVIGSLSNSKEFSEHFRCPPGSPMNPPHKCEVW
UniProt O00716: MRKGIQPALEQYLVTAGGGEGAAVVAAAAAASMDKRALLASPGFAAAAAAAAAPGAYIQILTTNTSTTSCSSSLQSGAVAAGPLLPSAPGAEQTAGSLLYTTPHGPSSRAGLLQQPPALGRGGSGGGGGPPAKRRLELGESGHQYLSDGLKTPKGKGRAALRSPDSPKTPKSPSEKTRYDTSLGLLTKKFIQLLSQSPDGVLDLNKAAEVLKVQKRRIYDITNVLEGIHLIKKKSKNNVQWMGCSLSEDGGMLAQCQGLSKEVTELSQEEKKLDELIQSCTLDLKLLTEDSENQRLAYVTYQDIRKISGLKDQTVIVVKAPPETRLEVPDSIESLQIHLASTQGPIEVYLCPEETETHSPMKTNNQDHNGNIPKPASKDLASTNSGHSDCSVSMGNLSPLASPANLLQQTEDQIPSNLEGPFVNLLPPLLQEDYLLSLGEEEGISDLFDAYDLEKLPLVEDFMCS
UniProt Q9Y2G8: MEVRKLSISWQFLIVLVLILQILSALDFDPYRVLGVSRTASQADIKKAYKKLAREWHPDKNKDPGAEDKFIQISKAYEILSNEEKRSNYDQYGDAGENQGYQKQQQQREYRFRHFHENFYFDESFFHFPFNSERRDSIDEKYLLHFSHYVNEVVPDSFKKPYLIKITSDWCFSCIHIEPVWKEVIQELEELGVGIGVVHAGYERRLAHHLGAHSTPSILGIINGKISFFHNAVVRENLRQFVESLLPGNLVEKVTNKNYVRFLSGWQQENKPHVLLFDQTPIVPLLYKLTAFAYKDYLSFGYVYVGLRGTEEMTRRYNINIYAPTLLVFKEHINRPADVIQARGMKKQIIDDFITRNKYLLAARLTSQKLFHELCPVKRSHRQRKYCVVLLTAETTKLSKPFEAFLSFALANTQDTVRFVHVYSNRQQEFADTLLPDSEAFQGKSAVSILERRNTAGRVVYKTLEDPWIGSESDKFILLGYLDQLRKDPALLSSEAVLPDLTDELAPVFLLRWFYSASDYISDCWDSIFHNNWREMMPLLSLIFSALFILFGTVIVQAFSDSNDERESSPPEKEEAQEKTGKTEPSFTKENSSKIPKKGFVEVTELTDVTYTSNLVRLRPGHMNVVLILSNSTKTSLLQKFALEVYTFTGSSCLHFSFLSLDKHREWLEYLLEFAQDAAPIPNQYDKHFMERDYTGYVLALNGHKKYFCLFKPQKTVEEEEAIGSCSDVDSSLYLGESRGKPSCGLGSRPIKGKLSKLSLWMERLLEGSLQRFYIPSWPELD
UniProt Q4LDG9: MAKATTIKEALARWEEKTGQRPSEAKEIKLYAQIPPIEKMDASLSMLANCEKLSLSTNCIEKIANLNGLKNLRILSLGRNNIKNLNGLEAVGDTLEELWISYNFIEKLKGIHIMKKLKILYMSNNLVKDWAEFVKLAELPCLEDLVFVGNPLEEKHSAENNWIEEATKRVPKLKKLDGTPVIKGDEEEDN
UniProt Q7RTS9: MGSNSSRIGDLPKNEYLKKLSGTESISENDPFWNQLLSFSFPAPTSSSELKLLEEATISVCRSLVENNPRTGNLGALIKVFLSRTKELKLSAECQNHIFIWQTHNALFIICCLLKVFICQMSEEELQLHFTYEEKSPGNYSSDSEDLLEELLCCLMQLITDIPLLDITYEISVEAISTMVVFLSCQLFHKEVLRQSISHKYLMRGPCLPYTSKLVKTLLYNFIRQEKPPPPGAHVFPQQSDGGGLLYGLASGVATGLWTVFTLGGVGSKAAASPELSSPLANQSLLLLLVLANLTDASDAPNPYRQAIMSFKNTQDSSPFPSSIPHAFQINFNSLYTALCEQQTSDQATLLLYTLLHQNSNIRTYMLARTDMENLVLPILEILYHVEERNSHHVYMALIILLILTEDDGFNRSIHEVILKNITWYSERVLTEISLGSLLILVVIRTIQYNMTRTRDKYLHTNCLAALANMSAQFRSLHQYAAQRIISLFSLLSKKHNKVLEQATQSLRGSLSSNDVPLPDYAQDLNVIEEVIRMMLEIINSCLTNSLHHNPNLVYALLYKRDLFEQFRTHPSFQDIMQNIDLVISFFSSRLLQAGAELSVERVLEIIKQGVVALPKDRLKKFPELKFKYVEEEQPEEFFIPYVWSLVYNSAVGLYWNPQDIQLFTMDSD
UniProt Q5SXM8: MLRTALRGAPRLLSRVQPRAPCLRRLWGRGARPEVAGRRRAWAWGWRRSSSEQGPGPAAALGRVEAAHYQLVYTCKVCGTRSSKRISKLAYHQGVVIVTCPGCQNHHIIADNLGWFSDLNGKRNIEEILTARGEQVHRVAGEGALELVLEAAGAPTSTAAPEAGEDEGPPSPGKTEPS
UniProt Q9P2X0: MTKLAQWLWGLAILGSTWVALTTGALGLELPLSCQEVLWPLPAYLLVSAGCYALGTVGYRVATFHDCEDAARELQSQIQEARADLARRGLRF
UniProt Q9UPQ8: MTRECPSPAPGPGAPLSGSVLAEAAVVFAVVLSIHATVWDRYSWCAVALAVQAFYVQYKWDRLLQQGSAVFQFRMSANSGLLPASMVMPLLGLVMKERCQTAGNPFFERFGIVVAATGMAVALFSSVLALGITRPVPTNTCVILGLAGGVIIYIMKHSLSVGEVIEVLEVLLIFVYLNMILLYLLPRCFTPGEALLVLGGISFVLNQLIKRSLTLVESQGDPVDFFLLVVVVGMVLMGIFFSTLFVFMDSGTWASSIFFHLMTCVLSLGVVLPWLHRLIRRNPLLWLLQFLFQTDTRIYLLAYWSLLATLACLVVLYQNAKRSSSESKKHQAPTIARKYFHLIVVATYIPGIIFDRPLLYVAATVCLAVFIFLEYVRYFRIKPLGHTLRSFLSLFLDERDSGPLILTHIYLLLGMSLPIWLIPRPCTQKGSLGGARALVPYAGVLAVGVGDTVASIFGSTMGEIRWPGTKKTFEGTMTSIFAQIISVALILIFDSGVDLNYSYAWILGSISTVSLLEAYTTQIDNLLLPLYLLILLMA
UniProt Q86YN1: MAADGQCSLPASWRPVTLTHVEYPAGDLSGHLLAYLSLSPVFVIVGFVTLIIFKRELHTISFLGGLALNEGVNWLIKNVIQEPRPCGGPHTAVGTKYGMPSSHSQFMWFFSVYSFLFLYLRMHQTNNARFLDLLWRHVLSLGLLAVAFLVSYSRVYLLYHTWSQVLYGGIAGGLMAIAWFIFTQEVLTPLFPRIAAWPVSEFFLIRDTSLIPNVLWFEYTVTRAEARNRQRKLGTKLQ
UniProt Q96DC8: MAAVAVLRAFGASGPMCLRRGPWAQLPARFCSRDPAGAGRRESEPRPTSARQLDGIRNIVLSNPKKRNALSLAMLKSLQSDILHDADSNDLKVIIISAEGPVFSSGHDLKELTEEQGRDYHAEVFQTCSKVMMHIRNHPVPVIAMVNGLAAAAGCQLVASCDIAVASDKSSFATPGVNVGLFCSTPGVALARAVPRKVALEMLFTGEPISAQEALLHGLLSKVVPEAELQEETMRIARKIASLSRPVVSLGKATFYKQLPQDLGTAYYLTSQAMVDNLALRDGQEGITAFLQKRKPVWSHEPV
UniProt O95147: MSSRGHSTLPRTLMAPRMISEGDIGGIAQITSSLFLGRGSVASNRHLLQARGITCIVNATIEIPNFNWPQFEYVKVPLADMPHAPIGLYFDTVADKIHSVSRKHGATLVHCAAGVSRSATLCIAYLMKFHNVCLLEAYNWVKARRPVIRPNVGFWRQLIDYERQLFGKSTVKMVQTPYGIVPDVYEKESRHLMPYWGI
UniProt Q99704: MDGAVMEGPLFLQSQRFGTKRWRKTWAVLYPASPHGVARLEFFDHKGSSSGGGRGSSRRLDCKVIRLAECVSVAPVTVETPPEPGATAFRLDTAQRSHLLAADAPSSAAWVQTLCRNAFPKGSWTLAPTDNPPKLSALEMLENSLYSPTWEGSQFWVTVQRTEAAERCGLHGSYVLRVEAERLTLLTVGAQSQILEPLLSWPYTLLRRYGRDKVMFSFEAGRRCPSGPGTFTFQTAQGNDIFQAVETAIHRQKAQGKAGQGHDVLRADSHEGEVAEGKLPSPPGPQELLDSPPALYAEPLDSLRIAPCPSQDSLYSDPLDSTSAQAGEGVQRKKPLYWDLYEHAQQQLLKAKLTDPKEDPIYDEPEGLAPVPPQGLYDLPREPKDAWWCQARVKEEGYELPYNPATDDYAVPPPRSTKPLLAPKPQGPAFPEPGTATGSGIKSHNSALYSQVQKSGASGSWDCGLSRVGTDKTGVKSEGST
UniProt Q6P3W2: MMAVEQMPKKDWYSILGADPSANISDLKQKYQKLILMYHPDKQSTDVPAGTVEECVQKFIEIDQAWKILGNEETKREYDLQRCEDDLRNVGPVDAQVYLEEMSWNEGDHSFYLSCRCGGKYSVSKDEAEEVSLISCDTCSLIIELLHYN
UniProt Q9H3Z4: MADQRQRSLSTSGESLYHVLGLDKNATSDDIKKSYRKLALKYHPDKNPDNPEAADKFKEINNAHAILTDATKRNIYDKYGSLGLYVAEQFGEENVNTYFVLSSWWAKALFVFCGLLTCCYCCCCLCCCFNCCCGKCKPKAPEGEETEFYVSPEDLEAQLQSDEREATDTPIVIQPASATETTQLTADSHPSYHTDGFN
UniProt Q6NUT2: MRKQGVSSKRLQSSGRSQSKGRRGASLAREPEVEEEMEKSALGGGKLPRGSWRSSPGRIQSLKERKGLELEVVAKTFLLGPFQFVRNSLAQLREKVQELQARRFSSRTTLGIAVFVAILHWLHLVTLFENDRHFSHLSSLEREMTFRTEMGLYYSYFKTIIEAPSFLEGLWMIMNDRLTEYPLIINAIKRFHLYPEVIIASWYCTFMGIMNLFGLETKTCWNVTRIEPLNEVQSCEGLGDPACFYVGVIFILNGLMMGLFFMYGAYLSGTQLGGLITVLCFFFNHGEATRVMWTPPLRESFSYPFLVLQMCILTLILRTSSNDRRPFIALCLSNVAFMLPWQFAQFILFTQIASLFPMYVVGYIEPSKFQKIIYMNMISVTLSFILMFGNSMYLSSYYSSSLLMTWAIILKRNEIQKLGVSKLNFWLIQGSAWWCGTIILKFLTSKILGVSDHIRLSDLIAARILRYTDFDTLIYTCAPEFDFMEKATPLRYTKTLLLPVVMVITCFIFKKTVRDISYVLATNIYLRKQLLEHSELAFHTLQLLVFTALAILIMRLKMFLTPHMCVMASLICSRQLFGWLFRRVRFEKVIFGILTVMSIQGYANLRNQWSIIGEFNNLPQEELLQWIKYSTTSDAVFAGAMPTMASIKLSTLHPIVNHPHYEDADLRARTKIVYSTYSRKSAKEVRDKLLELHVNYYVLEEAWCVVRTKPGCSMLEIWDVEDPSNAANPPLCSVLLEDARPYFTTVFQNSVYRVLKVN

Experiments:
Test in all cases: log2 fold change, soluble protein after heating vs DMSO (PISA); higher = thermal stabilisation; K562 cells, 10 uM, 30 min; active = over 0.2 and 3.5 SD of the protein, either way, in both replicates (recomputed)
bafetinib = compound: Cc1ccc(NC(=O)c2ccc(CN3CC[C@H](N(C)C)C3)c(C(F)(F)F)c2)cc1Nc1nccc(-c2cncnc2)n1 [bafetinib]
Outline: (§1)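 Soluble protein was quantified by TMTpro 16plex LC-MS/MS after channel sums were equalised. It was obtained as the supernatant after 21,000xg for 90 min from pooled aliquots of K562 cells (2×10^6 cells/mL, 10 μM compound, 30 min) heated for 3 min across 48°C-58°C and extracted in PBS with 0.5% NP-40 at 4°C. Thermal stability values are relative to control samples and come from duplicates. They are given as log2 fold changes.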

[1] = compound: Cc1cccc(CC(=O)N2CCc3c2ccc(-c2cn(C)c4ncnc(N)c24)c3F)n1
Outline: as §1

nilotinib = compound: Cc1cn(-c2cc(NC(=O)c3ccc(C)c(Nc4nccc(-c5cccnc5)n4)c3)cc(C(F)(F)F)c2)cn1 [nilotinib]
Outline: as §1

[2] = compound: Cc1nc(Nc2n[nH]c3c2CN(C(=O)N[C@H](CN(C)C)c2ccccc2)C3(C)C)c2sccc2n1
Outline: as §1

dasatinib = compound: Cc1nc(Nc2ncc(C(=O)Nc3c(C)cccc3Cl)s2)cc(N2CCN(CCO)CC2)n1 [dasatinib]
Outline: as §1

[3] = compound: Cc1ncc(-c2ccnc(Nc3ccc(S(C)(=O)=O)cc3)n2)n1C(C)C
Outline: as §1

[4] = compound: Cn1cc(-c2ccc3c(c2)CCN3C(=O)Cc2cccc(C(F)(F)F)c2)c2c(N)ncnc21
Outline: as §1

[5] = compound: Cn1cc(-c2ccc3nnc(C(F)(F)c4ccc5ncccc5c4)n3n2)cn1
Outline: as §1

tipifarnib = compound: Cn1cncc1[C@@](N)(c1ccc(Cl)cc1)c1ccc2c(c1)c(-c1cccc(Cl)c1)cc(=O)n2C [tipifarnib]
Outline: as §1

mubritinib = compound: FC(F)(F)c1ccc(/C=C/c2nc(COc3ccc(CCCCn4ccnn4)cc3)co2)cc1 [mubritinib]
Outline: as §1

[6] = compound: NC(=O)Nc1cc(-c2cccc(F)c2)sc1C(=O)N[C@H]1CCCNC1
Outline: as §1

[7] = compound: NC(=O)c1cnc(N[C@@H]2CCCC[C@@H]2N)nc1Nc1cccc(-n2nccn2)c1
Outline: as §1

[8] = compound: NC1(c2ccc(-c3nc4ccn5c(=O)[nH]nc5c4cc3-c3ccccc3)cc2)CCC1
Outline: as §1

[9] = compound: NCC(=O)Nc1ccc(-n2nc(C(F)(F)F)cc2-c2ccc3c(ccc4ccccc43)c2)cc1
Outline: as §1

entinostat = compound: Nc1ccccc1NC(=O)c1ccc(CNC(=O)OCc2cccnc2)cc1 [entinostat]
Outline: as §1

vorinostat = compound: O=C(CCCCCCC(=O)Nc1ccccc1)NO [vorinostat]
Outline: as §1

citarinostat = compound: O=C(CCCCCCNC(=O)c1cnc(N(c2ccccc2)c2ccccc2Cl)nc1)NO [citarinostat]
Outline: as §1

silmitasertib = compound: O=C(O)c1ccc2c(c1)nc(Nc1cccc(Cl)c1)c1ccncc12 [silmitasertib]
Outline: as §1

[10] = compound: c1cc(OCCN2CCCCC2)cc(-c2n[nH]c3ccc(-c4nnc[nH]4)cc23)c1
Outline: as §1

[11] = compound: O=C1NC(=O)C(c2cnc3ccccn23)=C1c1cn2c3c(cc(F)cc13)CN(C(=O)N1CCCCC1)CC2
Outline: as §1

Measured: log2 fold change

DNM1L isoform 2 (UniProt O00429)
inactive: bafetinib 0.021 | [1] -0.012 | nilotinib -0.039 | [2] -0.071 | dasatinib -0.117 | [3] -0.102 | [4] 0.055 | [5] -0.106 | tipifarnib 0.091 | mubritinib -0.084 | [6] -0.023 | [7] 0.081 | [8] -0.108 | [9] 0.108 | entinostat -0.074 | vorinostat 0.143 | citarinostat 0.009 | silmitasertib 0.051 | [10] 0.036

EDEM2 (UniProt Q9BV94)
inactive: bafetinib 0.094 | [1] 0 | nilotinib -0.096 | [2] 0.003 | dasatinib 0.114 | [3] -0.011 | [4] -0.046 | [5] 0 | tipifarnib 0.15 | mubritinib -0.117 | [6] 0.004 | [7] -0.108 | [8] -0.054 | [9] -0.039 | entinostat -0.003 | vorinostat 0.001 | silmitasertib 0.027 | [11] -0.029

ECM1 isoform 4 (UniProt Q16610)
inactive: bafetinib -0.01 | [1] -0.023 | nilotinib 0.045 | [2] 0.012 | dasatinib 0.021 | [3] 0.002 | [4] 0.049 | [5] 0.026 | tipifarnib 0.055 | mubritinib -0.046 | [6] -0.005 | [7] -0.01 | [8] 0.041 | [9] -0.009 | entinostat 0.039 | vorinostat -0.054 | citarinostat -0.041 | silmitasertib -0.009 | [11] -0.007 | [10] 0.129

ECE1 (UniProt P42892)
inactive: bafetinib -0.244 | [1] 0.086 | nilotinib -0.06 | [2] -0.059 | dasatinib -0.068 | [3] -0.1 | [4] 0.023 | [5] 0.006 | tipifarnib -0.023 | mubritinib 0.07 | [6] 0.018 | [7] -0.144 | [8] -0.234 | [9] -0.049 | entinostat -0.046 | vorinostat 0.07 | citarinostat 0.076 | silmitasertib -0.039 | [11] -0.049 | [10] -0.18

E2F3 (UniProt O00716)
inactive: bafetinib 0.015 | [1] -0.03 | nilotinib 0.033 | [2] 0.113 | [3] -0.165 | [4] -0.117 | [5] -0.079 | mubritinib -0.032 | [6] 0.102 | [8] -0.034 | [9] 0.038 | entinostat 0.026 | vorinostat 0.094 | citarinostat 0.001 | silmitasertib 0.014 | [11] -0.085 | [10] -0.089

ECM1 isoform 2 (UniProt Q16610)
inactive: bafetinib 0.238 | nilotinib 0.452 | [2] 0.016 | [3] 0.582 | mubritinib -0.289 | [7] 0.332 | [8] 0.213 | [9] -0.152 | silmitasertib 0.104

DNAJC16 (UniProt Q9Y2G8)
inactive: bafetinib 0.08 | [1] -0.043 | nilotinib -0.235 | [2] -0.017 | dasatinib -0.005 | [3] 0.053 | [4] -0.055 | tipifarnib -0.029 | [6] 0.116 | [7] 0.447 | [9] -0.079 | entinostat -0.004 | vorinostat 0.006 | citarinostat -0.241 | [11] 0.06 | [10] -0.136

DNAL1 (UniProt Q4LDG9)
inactive: bafetinib 0.035 | dasatinib 0.017 | [4] 0.186 | [5] 0.012 | [7] 0.035 | [9] 0.05 | [11] -0.26

DYM (UniProt Q7RTS9)
inactive: bafetinib 0.051 | [1] 0.017 | nilotinib -0.009 | [2] -0.069 | [3] -0.009 | [4] 0.169 | [5] -0.094 | tipifarnib -0.126 | mubritinib 0.024 | [6] -0.044 | [8] -0.132 | [9] 0.023 | entinostat -0.078 | vorinostat 0.029 | citarinostat -0.005 | silmitasertib 0.002 | [11] -0.13 | [10] 0.014

DNLZ (UniProt Q5SXM8)
inactive: bafetinib -0.032 | nilotinib 0.071 | [2] 0.02 | dasatinib 0.047 | [3] 0 | [4] -0.065 | [5] 0.082 | tipifarnib 0.08 | mubritinib -0.063 | [6] 0.031 | [7] -0.016 | [8] 0.068 | [9] 0.027 | entinostat -0.024 | citarinostat 0.037 | silmitasertib 0.052 | [11] -0.194 | [10] 0.128

DPY19L1, A0A1B0GW05
inactive: bafetinib 0.078 | nilotinib -0.04 | [2] 0.004 | dasatinib 0.043 | [3] -0.029 | [4] -0.076 | [5] -0.102 | tipifarnib 0.019 | mubritinib 0.114 | [6] 0.032 | [7] 0.027 | [8] -0.082 | [9] 0.064 | entinostat -0.018 | citarinostat 0.042 | silmitasertib 0.089 | [11] -0.035 | [10] 0.005

2 neighbouring records out of the list so far:
DYM (UniProt Q7RTS9)
inactive: bafetinib 0.051 | [1] 0.017 | nilotinib -0.009 | [2] -0.069 | [3] -0.009 | [4] 0.169 | [5] -0.094 | tipifarnib -0.126 | mubritinib 0.024 | [6] -0.044 | [8] -0.132 | [9] 0.023 | entinostat -0.078 | vorinostat 0.029 | citarinostat -0.005 | silmitasertib 0.002 | [11] -0.13 | [10] 0.014

DNLZ (UniProt Q5SXM8)
inactive: bafetinib -0.032 | nilotinib 0.071 | [2] 0.02 | dasatinib 0.047 | [3] 0 | [4] -0.065 | [5] 0.082 | tipifarnib 0.08 | mubritinib -0.063 | [6] 0.031 | [7] -0.016 | [8] 0.068 | [9] 0.027 | entinostat -0.024 | citarinostat 0.037 | silmitasertib 0.052 | [11] -0.194 | [10] 0.128

(cont.)

DNM2 isoform 4 (UniProt P50570)
inactive: bafetinib 0.154 | [1] 0.062 | nilotinib -0.006 | [2] 0.047 | dasatinib -0.007 | [3] -0.047 | [4] 0.006 | [5] 0.005 | mubritinib 0.108 | [6] -0.033 | [8] -0.318 | entinostat 0.342 | vorinostat -0.068 | citarinostat -0.113 | silmitasertib 0.116 | [11] 0.19 | [10] 0.06

DPM3 isoform 2 (UniProt Q9P2X0)
inactive: bafetinib -0.101 | nilotinib 0.061 | [2] 0.044 | dasatinib -0.086 | [3] -0.055 | [4] 0.125 | [5] 0.09 | tipifarnib 0.061 | mubritinib 0.071 | [6] 0.025 | [7] -0.132 | [8] -0.067 | [9] 0.065 | entinostat 0.016 | citarinostat -0.078 | silmitasertib -0.004 | [11] -0.183 | [10] -0.024

DYSF isoform 13 (UniProt O75923)
inactive: bafetinib 0.162 | [1] 0.05 | nilotinib 0.111 | [2] -0.041 | [3] 0.162 | [5] -0.05 | mubritinib 0.15 | [6] -0.093 | [7] -0.011 | [8] -0.026 | [9] 0.051 | entinostat -0.091 | vorinostat 0.011 | citarinostat -0.482 | silmitasertib 0.016 | [11] -0.026 | [10] -0.007

DOLK (UniProt Q9UPQ8)
inactive: bafetinib -0.099 | nilotinib -0.016 | [2] -0.059 | [3] -0.082 | [4] -0.242 | [6] -0.036 | [7] -0.288 | entinostat 0.075 | [11] 0.014

DOLPP1 (UniProt Q86YN1)
inactive: bafetinib -0.089 | nilotinib 0.035 | [2] -0.062 | [3] -0.023 | [4] -0.045 | [5] -0.006 | tipifarnib 0.075 | mubritinib 0.021 | [7] -0.102 | [8] -0.053 | [9] -0.003 | citarinostat 0.075 | silmitasertib 0.008 | [10] -0.007

ECHDC3 (UniProt Q96DC8)
inactive: bafetinib -0.053 | [1] 0.023 | nilotinib -0.06 | [2] 0.197 | [3] -0.197 | [5] 0.086 | mubritinib 0.159 | [6] -0.488 | [8] -0.111 | [9] 0.162 | entinostat 0.139 | vorinostat -0.143 | citarinostat 0.318 | silmitasertib 0.098 | [11] 0.185 | [10] -0.067

DUSP14 (UniProt O95147)
inactive: bafetinib 0.135 | [1] 0.027 | dasatinib 0.058 | [4] 0.084 | mubritinib 0.149 | [7] -0.007 | [8] -0.226 | [9] -0.052 | vorinostat 0.067 | silmitasertib -0.089 | [11] 0.146

E4F1 (UniProt Q66K89)
inactive: bafetinib -0.139 | [1] 0.208 | dasatinib 0.117 | [4] -0.012 | [5] -0.408 | tipifarnib 0.148 | mubritinib -0.039 | [6] -0.279 | [7] 0.071 | [8] -0.061 | [9] 0.168 | entinostat -0.203 | vorinostat 0.051 | silmitasertib 0.053 | [11] 0.269

DPYSL2 (UniProt Q16555)
inactive: bafetinib -0.114 | [1] 0.081 | nilotinib 0.046 | [2] -0.063 | dasatinib 0 | [3] 0.079 | [4] 0.042 | tipifarnib 0.015 | mubritinib -0.048 | [6] 0.053 | [7] 0.01 | [8] 0.014 | [9] -0.056 | entinostat -0.037 | vorinostat 0.276 | citarinostat -0.017 | silmitasertib -0.118 | [11] -0.224 | [10] -0.054

DOK1 (UniProt Q99704)
inactive: bafetinib -0.213 | nilotinib 0.024 | [2] 0.064 | [3] -0.017 | [4] -0.055 | tipifarnib -0.142 | mubritinib 0.164 | [6] -0.01 | [7] 0.059 | [8] -0.13 | [9] -0.058 | entinostat 0.09 | citarinostat 0.216 | silmitasertib -0.1 | [11] -0.202 | [10] 0.002

DNAJC24 (UniProt Q6P3W2)
inactive: bafetinib -0.079 | nilotinib 0.019 | [2] -0.054 | dasatinib 0.053 | [3] 0.016 | [4] -0.1 | [5] -0.201 | tipifarnib 0.084 | mubritinib 0.06 | [6] 0.023 | [8] 0.011 | [9] -0.129 | entinostat 0.055 | citarinostat 0.102 | silmitasertib 0.052 | [11] -0.059 | [10] -0.169

DNAJC5 (UniProt Q9H3Z4)
inactive: bafetinib -0.081 | [1] -0.059 | nilotinib 0.024 | [2] 0.009 | dasatinib 0.054 | [3] 0.119 | [5] -0.038 | tipifarnib 0.142 | mubritinib -0.008 | [6] -0.028 | [7] 0.032 | [8] 0.068 | [9] -0.041 | entinostat -0.051 | vorinostat -0.046 | citarinostat 0.004 | silmitasertib -0.027 | [11] -0.014 | [10] -0.015

DPY19L2 (UniProt Q6NUT2)
inactive: bafetinib 0.021 | [1] 0.002 | nilotinib 0.057 | [2] -0.153 | [3] 0.05 | mubritinib -0.097 | [7] 0.088 | [8] 0.123 | [9] 0.028 | vorinostat 0.004 | citarinostat 0.046 | silmitasertib -0.009 | [10] -0.127
